This is an account of results in patent US20120039878A1.

The experiment has as its target Vλ6 monomer. The experiment in a line: SPR (BIAcore), Vλ6 monomer immobilized on a chip.

Results are given in words; binding and its absence hold for the method and conditions named.

B1: murine monoclonal antibody 7D8 (ATCC Accession Number PTA-9468) (antibody, mouse IgG2b, V domains shown)
VH: EVQLVESGGRLVQPKGSLKLSCAASGFTFNTYAMYWIRQAPGKGLEWVARIRSKSNNYAIYYADSVKDRFTIFRDDSQSMLYLQMNNLKTEDTAMYYCVRPYSDSFAYWGQGTLVTVSA
VL: DVVMTQTPLSLPVSLGDQASISCRSSLSLVHSTGNTYLHWYLQKPGQSPKLLIYKVSNRFSGVPDRFSGSGSGTYFTLKISRVEAEDLGVYFCSQSTHVPFTFGGGTKLEIK
As to B1, the binding result is reported as “no binding”.
